Measurements reported in doi:10.1101/2025.08.05.25330579.

Target: T1, RBM10 RRM2 R332H (UniProt P98175)
T1 sequence (looked up): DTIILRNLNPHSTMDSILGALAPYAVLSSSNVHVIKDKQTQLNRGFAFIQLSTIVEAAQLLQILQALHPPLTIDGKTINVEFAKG
Test: ITC and NMR
Conditions: recombinant protein; residues 300-384

Sequence: UUGUCUGCUCCC [NUMB exon 12-derived 12mer RNA]
- binding result: binds more weakly

A weaker result is weaker than the reference pair of the same experiment. Protein sequences can lack the tags named with them.
